PubChem BioAssay AID284 (DTP/NCI, 2004)
The list shows only some results of the screen, not a fair sample: it gathers some chemical classes. Other doses and runs of a compound may be missing. T/C gives the treated animals as a percentage of the vehicle group. Where survival is the endpoint, this PubChem deposit counts one and a half times the control or more as active, and values a quarter to a half above the control carry no call in these data; other NCI protocols may use other cut-offs. Some T/C values are marked as having no survivor count here; that says nothing about deaths at the dose. Schedules are NCI's codes, read here as Q, the interval in days (D) or hours (H), X, the number of doses. Some schedule codes hold Z or #, which are not explained here.

Test system: BDF1 mice, L1210/MTX-resistant leukemia ip, survival T/C
Experiment: NCI In Vivo Anticancer Drug Screen. Data for tumor model L1210 Leukemia resistant to Methotrexate; NSC 740 (intraperitoneal) in B6D2F1 (BDF1) mice
Settings: T/C endpoint: mean survival time, higher T/C = longer survival
Method: The antitumor activity of compounds was measured in mice bearing transplantable tumors. Survival or tumor size were measured and the results are expressed as the measurement made in the treated group (T) divided by the measurement made in the vehicle treated control group (C). The tumor model used in this assay is L1210 Leukemia resistant to Methotrexate; NSC 740 (intraperitoneal) in B6D2F1 (BDF1) mice

[1] = dose: 0.5 mg/kg/injection, schedule: Q01DX010 (ip), vehicle: saline
[2] = dose: 1.0 mg/kg/injection, schedule: Q01DX010 (ip), vehicle: saline
[3] = dose: 2.0 mg/kg/injection, schedule: Q01DX010 (ip), vehicle: saline
[4] = dose: 0.5 mg/kg/injection, schedule: Q01DX Z (ip), vehicle: saline
[5] = dose: 1.0 mg/kg/injection, schedule: Q01DX Z (ip), vehicle: saline
[6] = dose: 2.0 mg/kg/injection, schedule: Q01DX Z (ip), vehicle: saline
[7] = dose: 4.0 mg/kg/injection, schedule: Q01DX Z (ip), vehicle: saline

NC(Cc1ccccc1N(CCCl)CCCl)C(=O)O (stereo not given) was tested, and the T/C (dose: 0.25 mg/kg/injection, schedule: Q01DX010 (ip), vehicle: saline) was 144 % of control [survivor count not shown], the T/C [1] was 148 % of control [survivor count not shown] and the T/C (dose: 0.5 mg/kg/injection, schedule: Q01DX Z (ip), vehicle: methylcellulose (MC)) was 134 % of control [survivor count not shown]. The T/C [2] was 94 % of control [survivor count not shown] and the T/C [3] was 96 % of control [survivor count not shown].
For ClCCN(CCCl)Cc1nc2ccccc2[nH]1, the T/C (dose: 0.18 mg/kg/injection, schedule: Q01DX Z (ip), vehicle: saline) was 117 % of control [survivor count not shown], the T/C (dose: 0.35 mg/kg/injection, schedule: Q01DX Z (ip), vehicle: saline) was 119 % of control [survivor count not shown] and the T/C [4] was 119 % of control [survivor count not shown]. The T/C (dose: 0.7 mg/kg/injection, schedule: Q01DX Z (ip), vehicle: saline) was 128 % of control [survivor count not shown], the T/C [5] was 105 % of control [survivor count not shown] and the T/C (dose: 1.4 mg/kg/injection, schedule: Q01DX Z (ip), vehicle: saline) was 148 % of control [survivor count not shown]. The T/C [6] was 100 % of control [survivor count not shown], the T/C [7] was 99 % of control [survivor count not shown] and the T/C (dose: 5.0 mg/kg/injection, schedule: Q01DX Z (ip), vehicle: carboxymethylcellulose (CMC)) was 104 % of control [survivor count not shown]. The T/C (dose: 10.0 mg/kg/injection, schedule: Q01DX Z (ip), vehicle: carboxymethylcellulose (CMC)) was 100 % of control [survivor count not shown].
In the case of CC(C(=O)O)N(CCCl)CCCl (stereo not given), the T/C [1] was 183 % of control [survivor count not shown], the T/C [4] was 105 % of control [survivor count not shown] and the T/C [2] was 218 % of control [survivor count not shown]. The T/C [5] was 110 % of control [survivor count not shown], the T/C [3] was 100 % of control [survivor count not shown] and the T/C [6] was 123 % of control [survivor count not shown]. The T/C [7] was 105 % of control [survivor count not shown].
ClCCNCCCl was tested, and the T/C (dose: 5.0 mg/kg/injection, schedule: Q01DX Z (ip), vehicle: saline) was 121 % of control [survivor count not shown], the T/C (dose: 7.5 mg/kg/injection, schedule: Q01DX Z (ip), vehicle: saline) was 133 % of control [survivor count not shown] and the T/C (dose: 10.0 mg/kg/injection, schedule: Q01DX Z (ip), vehicle: saline) was 141 % of control [survivor count not shown]. For the same compound, the T/C (dose: 15.0 mg/kg/injection, schedule: Q01DX Z (ip), vehicle: saline) was 141 % of control [survivor count not shown], the T/C (dose: 18.8 mg/kg/injection, schedule: Q01DX010 (ip), vehicle: saline) was 142 % of control [survivor count not shown] and the T/C (dose: 37.5 mg/kg/injection, schedule: Q01DX010 (ip), vehicle: saline) was 131 % of control [survivor count not shown]. For the same compound, the T/C (dose: 75.0 mg/kg/injection, schedule: Q01DX010 (ip), vehicle: saline) was 91 % of control [survivor count not shown] and the T/C (dose: 75.0 mg/kg/injection, schedule: Q01DX Z (ip), vehicle: saline) was 90 % of control [survivor count not shown].
In the case of O=C(O)CN(CCCl)CCCl, the T/C (dose: 0.25 mg/kg/injection, schedule: Q01DX Z (ip), vehicle: saline) was 115 % of control [survivor count not shown], the T/C (dose: 0.37 mg/kg/injection, schedule: Q01DX Z (ip), vehicle: saline) was 128 % of control [survivor count not shown] and the T/C [4] was 120 % of control [survivor count not shown]. For the same compound, the T/C (dose: 0.63 mg/kg/injection, schedule: Q01DX010 (ip), vehicle: saline) was 177 % of control [survivor count not shown], the T/C (dose: 0.75 mg/kg/injection, schedule: Q01DX Z (ip), vehicle: saline) was 133 % of control [survivor count not shown] and the T/C (dose: 1.25 mg/kg/injection, schedule: Q01DX010 (ip), vehicle: saline) was 243 % of control [survivor count not shown]. For the same compound, the T/C [6] was 101 % of control [survivor count not shown], the T/C (dose: 2.5 mg/kg/injection, schedule: Q01DX010 (ip), vehicle: saline) was 102 % of control [survivor count not shown] and the T/C [7] was 94 % of control [survivor count not shown]. For the same compound, the T/C (dose: 5.0 mg/kg/injection, schedule: Q01DX010 (ip), vehicle: saline) was 88 % of control [survivor count not shown].
